Among the data in article PMC12837915 are binding values, retold here.

The chains behind the UniProt entries cited, without tags or fusion partners.
UniProt P48431: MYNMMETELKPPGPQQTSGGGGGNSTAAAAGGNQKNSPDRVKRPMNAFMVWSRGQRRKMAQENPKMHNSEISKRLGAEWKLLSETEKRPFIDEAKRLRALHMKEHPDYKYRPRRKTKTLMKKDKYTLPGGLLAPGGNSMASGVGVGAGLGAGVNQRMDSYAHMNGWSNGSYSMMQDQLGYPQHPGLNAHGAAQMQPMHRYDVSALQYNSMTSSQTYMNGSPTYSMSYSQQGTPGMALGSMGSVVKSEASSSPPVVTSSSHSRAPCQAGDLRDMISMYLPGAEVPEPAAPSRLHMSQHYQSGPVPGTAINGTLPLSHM

No constants are given. Whether binding was seen depends on the method and setting. In cells and extracts the contact can be indirect. Some binding calls cover weakened binding; strength is not graded here. Tags and fused reporters may be left off the sequences shown.

The test deals with SOX2 (sex-determining region Y box 2) (human (endogenous in SAS)) (UniProt P48431). Nature of the test: co-IP; lysates of GST-ENOX2-overexpressing SAS cells; non-immune IgG or antibodies against GST and SOX2 on Protein G agarose, overnight at 4 °C; lysis buffer 20 mM Tris-HCl pH 7.4, 100 mM NaCl, 5 mM EDTA; Western blot with anti-GST or anti-SOX2.

B1: GST-ENOX2 (human tumor-associated NADH oxidase) (protein, UniProt Q16206 1-610)
chain: MQRDFRWLWVYEIGYAADNSRTLNVDSTAMTLPMSDPTAWATAMNNLGMAPLGIAGQPILPDFDPALGMMTGIPPITPMMPGLGIVPPPIPPDMPVVKEIIHCKSCTLFPPNPNLPPPATRERPPGCKTVFVGGLPENGTEQIIVEVFEQCGEIIAIRKSKKNFCHIRFAEEYMVDKALYLSGYRIRLGSSTDKKDTGRLHVDFAQARDDLYEWECKQRMLAREERHRRRMEEERLRPPSPPPVVHYSDHECSIVAEKLKDDSKFSEAVQTLLTWIERGEVNRRSANNFYSMIQSANSHVRRLVNEKAAHEKDMEEAKEKFKQALSGILIQFEQIVAVYHSASKQKAWDHFTKAQRKNISVWCKQAEEIRNIHNDELMGIRREEEMEMSDDEIEEMTETKETEESALVSQAEALKEENDSLRWQLDAYRNEVELLKQEQGKVHREDDPNKEQQLKLLQQALQGMQQHLLKVQEEYKKKEAELEKLKDDKLQVEKMLENLKEKESCASRLCASNQDSEYPLEKTMNSSPIKSEREALLVGIISTFLHVHPFGASIEYICSYLHRLDNKICTSDVECLMGRLQHTFKQEMTGVGASLEKRWKFCGFEGLKLT
Consider B1, for which the binding result is “binds”.
